The values below come from patent publication US20230348630A1.

The target in test [1] is CD3D&E protein (Cat #: CT038-H2508H, Sino Biological) (human). Kind of test: SPR (BIAcore 8K). (In SPR one partner is held on a chip, and binding of the other changes the refractive index at the surface.)
For test [2] the target is unchanged. As to the kind of experiment: ELISA, coated CD3D&E. (ELISA stands for enzyme-linked immunosorbent assay.)

These are yes or no findings as the source states them, for the method shown. A result given as binding can be weak or reduced; the word gives no strength.

B1: anti-CD3D&E antibody D1E9, full-length human IgG1 (L234A/L235A/N297A)/kappa (antibody, V domains shown)
VH: EVQLVESGGGLVQPGRSLRLSCAASGFTFDDFAMHWVRQAPGKGLEWVSGITWNSGSVGYADSVKGRFTISRDNAKKSLYLQMNSLRAEDTALYYCAKDRSGYGHYYYGMDVWGQGTTVTVAS
VL: EIVMTQSPATLSVSPGERATLSCRASTSVSHNVAWYQQKPGQAPRLLIYGASTKVTGIPARFSGSGSGTEFTLTISSLQSEDFAVYYCQHYINWPLTFGGGTKVEIKR
Take B1: the binding result in test [1] and in test [2] was “binds” throughout.

B2: anti-CD3D&E antibody D12A4, full-length human IgG1 (L234A/L235A/N297A)/kappa (antibody, V domains shown)
VH: EVQLVESGGGLVQPGRSLRLSCAASGFTFGDYAMHWVRQAPGKGLEWVSGISWNHGHIGYADSVKGRFTISRDNAKKSLYLQMNSLRAEDTALYYCAKDNSGYGHYYYGMDVWGQGTTVTVAS
VL: EIVMTQSPATLSVSPGERATLSCRASRSVSRNLAWYQQKPGQAPRLLIYGASTKPTGIPARFSGSGSGTEFTLTISSLQSEDFAVYYCQHYTNWPLRFGGGTKVEIKR
Consider B2, for which the binding entry in test [1] and in test [2] was “binds” throughout.
